{"source": "patent US11655459B2", "about": "“Methods for reprogramming somatic cells” (Whitehead Institute for Biomedical Research, priority 2003, dated 2023)", "key": {"[1]": {"system": "inducible Oct4 transgene", "assay": "Expression of the inducible Oct4 transgene by Northern blot and Western blot", "format": "cell-based, mouse", "conditions": "fibroblasts from tail biopsies of Oct4-inducible mice, induced 3 days at 2 microgram/ml"}, "[2]": {"system": "fibroblasts derived from tail biopsies of mice that carry the inducible Oct4 transgene", "assay": "Nuclear transfer experiment: in vitro development of clones derived from Oct4-induced fibroblasts", "format": "cell-based, mouse", "conditions": "Dox induction 24 hours prior to nuclear transfer; on average", "description": "Nuclear transfer was performed on fibroblasts derived from tail biopsies of mice that carry the inducible Oct4 transgene. Dox induction was for 24 hours prior to nuclear transfer. Cloned embryos were then activated and cultured to the blastocyst stage to derive ES cells as described previously (Hochedlinger and Jaenisch, 2002). […] [table]"}}, "note": "At least one structure is not confirmed: it was looked up by name or label, or the drawing left a doubt.", "data": [{"smiles": "C[C@H]1c2cccc(O)c2C(=O)C2=C(O)[C@]3(O)C(=O)C(C(N)=O)=C(O)[C@@H](N(C)C)[C@@H]3[C@@H](O)[C@@H]21", "note": "[doxycycline]", "values": [{"measurement": "Oct4 expression level", "setting": "[1]", "value": "comparable to the Oct4 expression level in ES cells"}, {"measurement": "blastocyst formation and ES cell derivation, induced versus uninduced fibroblasts", "setting": "[2]", "value": "more efficient from Oct4 induced fibroblast than from uninduced fibroblasts"}]}]}
